Assay results as given in article PMC11011321.
These are yes or no findings as the source states them, for the method shown. Binding seen in cells or lysates may run through a third protein. Some binding calls cover weakened binding; strength is not graded here.

Sequences of proteins named here, by UniProt entry; tags and fusion partners are left off.
UniProt P35222: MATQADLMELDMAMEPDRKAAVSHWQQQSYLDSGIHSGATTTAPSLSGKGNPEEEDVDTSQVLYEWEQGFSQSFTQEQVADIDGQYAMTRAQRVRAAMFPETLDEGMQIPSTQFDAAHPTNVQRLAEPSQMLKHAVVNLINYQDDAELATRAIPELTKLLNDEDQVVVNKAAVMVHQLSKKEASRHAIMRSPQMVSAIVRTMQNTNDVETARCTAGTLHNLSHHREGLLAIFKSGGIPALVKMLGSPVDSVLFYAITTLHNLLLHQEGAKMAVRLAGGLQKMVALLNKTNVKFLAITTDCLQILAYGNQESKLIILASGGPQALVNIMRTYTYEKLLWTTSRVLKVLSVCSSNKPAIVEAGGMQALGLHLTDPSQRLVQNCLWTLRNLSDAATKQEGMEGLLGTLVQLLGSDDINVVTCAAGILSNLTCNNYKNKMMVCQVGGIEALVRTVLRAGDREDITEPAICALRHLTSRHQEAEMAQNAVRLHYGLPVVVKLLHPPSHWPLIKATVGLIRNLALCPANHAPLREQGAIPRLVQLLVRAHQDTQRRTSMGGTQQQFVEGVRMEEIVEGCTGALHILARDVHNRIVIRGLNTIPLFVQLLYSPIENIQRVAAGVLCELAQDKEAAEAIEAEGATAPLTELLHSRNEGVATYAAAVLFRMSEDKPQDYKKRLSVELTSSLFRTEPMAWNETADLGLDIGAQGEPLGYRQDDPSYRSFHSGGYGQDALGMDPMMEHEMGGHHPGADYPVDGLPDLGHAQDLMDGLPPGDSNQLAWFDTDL
UniProt Q6KC79: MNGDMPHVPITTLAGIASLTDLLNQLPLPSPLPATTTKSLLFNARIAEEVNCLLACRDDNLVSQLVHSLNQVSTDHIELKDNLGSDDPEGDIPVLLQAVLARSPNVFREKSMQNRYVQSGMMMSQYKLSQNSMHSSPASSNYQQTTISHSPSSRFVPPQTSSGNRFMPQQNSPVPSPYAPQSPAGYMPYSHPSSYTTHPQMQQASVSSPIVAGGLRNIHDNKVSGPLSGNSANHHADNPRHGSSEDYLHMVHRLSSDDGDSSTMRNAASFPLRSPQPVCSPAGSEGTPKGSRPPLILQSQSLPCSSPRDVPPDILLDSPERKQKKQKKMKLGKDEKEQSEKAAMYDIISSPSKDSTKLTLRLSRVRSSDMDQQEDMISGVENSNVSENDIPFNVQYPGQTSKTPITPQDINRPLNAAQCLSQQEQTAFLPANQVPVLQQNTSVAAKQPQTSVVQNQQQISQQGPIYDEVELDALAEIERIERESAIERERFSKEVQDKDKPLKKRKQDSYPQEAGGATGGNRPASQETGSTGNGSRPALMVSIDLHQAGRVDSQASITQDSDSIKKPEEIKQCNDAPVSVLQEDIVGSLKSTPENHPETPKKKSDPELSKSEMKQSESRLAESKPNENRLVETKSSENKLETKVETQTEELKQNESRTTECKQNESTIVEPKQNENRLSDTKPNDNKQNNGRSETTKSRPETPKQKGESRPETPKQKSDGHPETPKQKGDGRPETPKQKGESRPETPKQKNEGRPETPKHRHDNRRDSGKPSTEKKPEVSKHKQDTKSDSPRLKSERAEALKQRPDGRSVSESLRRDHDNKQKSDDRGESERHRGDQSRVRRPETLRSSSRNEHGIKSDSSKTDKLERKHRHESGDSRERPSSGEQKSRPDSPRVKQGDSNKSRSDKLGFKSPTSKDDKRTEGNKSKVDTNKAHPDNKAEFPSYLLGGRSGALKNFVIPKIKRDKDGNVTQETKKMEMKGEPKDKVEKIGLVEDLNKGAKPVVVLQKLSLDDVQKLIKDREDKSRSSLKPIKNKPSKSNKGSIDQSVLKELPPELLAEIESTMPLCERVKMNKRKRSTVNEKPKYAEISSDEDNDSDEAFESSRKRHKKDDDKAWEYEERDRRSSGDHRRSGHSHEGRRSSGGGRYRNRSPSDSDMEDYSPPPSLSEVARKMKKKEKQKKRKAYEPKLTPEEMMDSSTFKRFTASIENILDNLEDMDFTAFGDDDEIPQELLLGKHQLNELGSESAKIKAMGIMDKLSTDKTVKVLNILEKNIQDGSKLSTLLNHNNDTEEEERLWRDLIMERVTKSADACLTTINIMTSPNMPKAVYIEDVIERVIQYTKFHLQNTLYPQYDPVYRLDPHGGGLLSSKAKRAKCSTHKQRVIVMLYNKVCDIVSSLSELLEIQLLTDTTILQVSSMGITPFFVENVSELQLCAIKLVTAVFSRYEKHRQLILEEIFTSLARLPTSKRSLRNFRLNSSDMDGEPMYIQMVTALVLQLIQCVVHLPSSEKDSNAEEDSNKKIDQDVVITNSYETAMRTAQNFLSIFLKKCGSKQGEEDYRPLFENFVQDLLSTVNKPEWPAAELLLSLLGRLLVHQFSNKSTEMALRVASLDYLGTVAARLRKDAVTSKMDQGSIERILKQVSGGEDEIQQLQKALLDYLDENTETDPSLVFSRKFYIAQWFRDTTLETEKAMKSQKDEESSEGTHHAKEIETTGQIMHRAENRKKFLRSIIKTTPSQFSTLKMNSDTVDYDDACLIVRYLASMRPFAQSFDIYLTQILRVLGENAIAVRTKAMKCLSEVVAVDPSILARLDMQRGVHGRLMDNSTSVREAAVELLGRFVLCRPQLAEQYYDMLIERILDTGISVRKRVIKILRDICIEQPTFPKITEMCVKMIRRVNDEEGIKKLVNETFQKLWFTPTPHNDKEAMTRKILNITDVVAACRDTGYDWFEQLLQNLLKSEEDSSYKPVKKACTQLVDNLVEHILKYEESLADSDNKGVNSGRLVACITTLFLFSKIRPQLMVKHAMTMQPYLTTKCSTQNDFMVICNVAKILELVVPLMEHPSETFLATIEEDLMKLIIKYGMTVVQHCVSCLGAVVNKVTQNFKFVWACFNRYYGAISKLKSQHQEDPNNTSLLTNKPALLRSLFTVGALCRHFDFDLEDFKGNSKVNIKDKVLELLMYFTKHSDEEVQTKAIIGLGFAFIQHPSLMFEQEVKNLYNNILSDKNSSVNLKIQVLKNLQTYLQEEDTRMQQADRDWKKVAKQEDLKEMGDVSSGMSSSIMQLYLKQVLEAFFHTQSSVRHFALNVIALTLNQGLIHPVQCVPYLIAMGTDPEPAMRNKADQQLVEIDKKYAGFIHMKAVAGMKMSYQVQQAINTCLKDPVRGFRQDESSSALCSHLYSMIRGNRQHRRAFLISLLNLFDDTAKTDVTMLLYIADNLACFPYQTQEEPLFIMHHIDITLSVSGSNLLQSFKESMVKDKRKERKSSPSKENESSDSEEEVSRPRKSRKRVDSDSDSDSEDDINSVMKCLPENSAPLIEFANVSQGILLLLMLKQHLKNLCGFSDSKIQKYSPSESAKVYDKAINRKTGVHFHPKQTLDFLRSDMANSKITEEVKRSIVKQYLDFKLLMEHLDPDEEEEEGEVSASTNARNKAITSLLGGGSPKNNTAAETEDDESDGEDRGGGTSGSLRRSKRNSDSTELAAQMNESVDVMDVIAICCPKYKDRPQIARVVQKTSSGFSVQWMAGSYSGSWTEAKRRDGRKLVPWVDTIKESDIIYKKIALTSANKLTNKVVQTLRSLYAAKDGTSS
UniProt Q9UQE7: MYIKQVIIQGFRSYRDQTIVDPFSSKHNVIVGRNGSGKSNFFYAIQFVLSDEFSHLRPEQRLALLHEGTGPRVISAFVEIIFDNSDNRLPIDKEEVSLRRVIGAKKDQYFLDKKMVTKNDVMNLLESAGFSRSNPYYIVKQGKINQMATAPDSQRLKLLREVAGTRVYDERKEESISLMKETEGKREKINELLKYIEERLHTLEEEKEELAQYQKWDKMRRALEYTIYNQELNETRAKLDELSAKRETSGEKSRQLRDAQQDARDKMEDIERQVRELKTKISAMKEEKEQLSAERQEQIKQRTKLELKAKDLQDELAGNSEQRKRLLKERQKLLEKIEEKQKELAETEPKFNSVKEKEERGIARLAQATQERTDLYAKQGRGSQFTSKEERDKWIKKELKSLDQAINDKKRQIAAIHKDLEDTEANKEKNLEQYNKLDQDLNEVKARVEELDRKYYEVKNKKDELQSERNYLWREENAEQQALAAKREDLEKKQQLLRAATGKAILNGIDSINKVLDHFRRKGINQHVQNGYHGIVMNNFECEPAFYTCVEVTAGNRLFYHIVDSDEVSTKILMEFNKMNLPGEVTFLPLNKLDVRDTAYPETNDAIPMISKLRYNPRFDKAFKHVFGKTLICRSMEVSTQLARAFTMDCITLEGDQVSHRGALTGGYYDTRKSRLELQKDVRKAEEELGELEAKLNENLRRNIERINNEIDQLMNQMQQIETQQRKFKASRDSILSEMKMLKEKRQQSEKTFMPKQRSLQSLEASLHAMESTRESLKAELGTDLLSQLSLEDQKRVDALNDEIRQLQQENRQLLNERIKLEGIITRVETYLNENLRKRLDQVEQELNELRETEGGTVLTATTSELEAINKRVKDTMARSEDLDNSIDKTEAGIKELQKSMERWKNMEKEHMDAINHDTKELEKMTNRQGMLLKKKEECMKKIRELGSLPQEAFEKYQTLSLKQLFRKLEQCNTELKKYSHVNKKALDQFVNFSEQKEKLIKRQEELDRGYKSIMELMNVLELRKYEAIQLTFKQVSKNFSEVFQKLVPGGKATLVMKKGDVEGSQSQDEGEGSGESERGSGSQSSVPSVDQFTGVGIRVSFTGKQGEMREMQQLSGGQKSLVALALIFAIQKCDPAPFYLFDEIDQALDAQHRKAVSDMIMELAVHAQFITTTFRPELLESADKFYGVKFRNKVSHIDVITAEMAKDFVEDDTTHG

B1: RAD21 (protein, UniProt O60216 1-631)
chain: MFYAHFVLSKRGPLAKIWLAAHWDKKLTKAHVFECNLESSVESIISPKVKMALRTSGHLLLGVVRIYHRKAKYLLADCNEAFIKIKMAFRPGVVDLPEENREAAYNAITLPEEFHDFDQPLPDLDDIDVAQQFSLNQSRVEEITMREEVGNISILQENDFGDFGMDDREIMREGSAFEDDDMLVSTTTSNLLLESEQSTSNLNEKINHLEYEDQYKDDNFGEGNDGGILDDKLISNNDGGIFDDPPALSEAGVMLPEQPAHDDMDEDDNVSMGGPDSPDSVDPVEPMPTMTDQTTLVPNEEEAFALEPIDITVKETKAKRKRKLIVDSVKELDSKTIRAQLSDYSDIVTTLDLAPPTKKLMMWKETGGVEKLFSLPAQPLWNNRLLKLFTRCLTPLVPEDLRKRRKGGEADNLDEFLKEFENPEVPREDQQQQHQQRDVIDEPIIEEPSRLQESVMEASRTNIDESAMPPPPPQGVKRKAGQIDPEPVMPPQQVEQMEIPPVELPPEEPPNICQLIPELELLPEKEKEKEKEKEDDEEEEDEDASGGDQDQEERRWNKRTQQMLHGLQRALAKTGAESISLLELCRNTNRKQAAAKFYSFLVLKKQQAIELTQEEPYSDIIATPGPRFHII
B2: SMC1A (protein, UniProt Q14683 1-1233)
chain: MGFLKLIEIENFKSYKGRQIIGPFQRFTAIIGPNGSGKSNLMDAISFVLGEKTSNLRVKTLRDLIHGAPVGKPAANRAFVSMVYSEEGAEDRTFARVIVGGSSEYKINNKVVQLHEYSEELEKLGILIKARNFLVFQGAVESIAMKNPKERTALFEEISRSGELAQEYDKRKKEMVKAEEDTQFNYHRKKNIAAERKEAKQEKEEADRYQRLKDEVVRAQVQLQLFKLYHNEVEIEKLNKELASKNKEIEKDKKRMDKVEDELKEKKKELGKMMREQQQIEKEIKEKDSELNQKRPQYIKAKENTSHKIKKLEAAKKSLQNAQKHYKKRKGDMDELEKEMLSVEKARQEFEERMEEESQSQGRDLTLEENQVKKYHRLKEEASKRAATLAQELEKFNRDQKADQDRLDLEERKKVETEAKIKQKLREIEENQKRIEKLEEYITTSKQSLEEQKKLEGELTEEVEMAKRRIDEINKELNQVMEQLGDARIDRQESSRQQRKAEIMESIKRLYPGSVYGRLIDLCQPTQKKYQIAVTKVLGKNMDAIIVDSEKTGRDCIQYIKEQRGEPETFLPLDYLEVKPTDEKLRELKGAKLVIDVIRYEPPHIKKALQYACGNALVCDNVEDARRIAFGGHQRHKTVALDGTLFQKSGVISGGASDLKAKARRWDEKAVDKLKEKKERLTEELKEQMKAKRKEAELRQVQSQAHGLQMRLKYSQSDLEQTKTRHLALNLQEKSKLESELANFGPRINDIKRIIQSREREMKDLKEKMNQVEDEVFEEFCREIGVRNIREFEEEKVKRQNEIAKKRLEFENQKTRLGIQLDFEKNQLKEDQDKVHMWEQTVKKDENEIEKLKKEEQRHMKIIDETMAQLQDLKNQHLAKKSEVNDKNHEMEEIRKKLGGANKEMTHLQKEVTAIETKLEQKRSDRHNLLQACKMQDIKLPLSKGTMDDISQEEGSSQGEDSVSGSQRISSIYAREALIEIDYGDLCEDLKDAQAEEEIKQEMNTLQQKLNEQQSVLQRIAAPNMKAMEKLESVRDKFQETSDEFEAARKRAKKAKQAFEQIKKERFDRFNACFESVATNIDEIYKALSRNSSAQAFLGPENPEEPYLDGINYNCVAPGKRFRPMDNLSGGEKTVAALALLFAIHSYKPAPFFVLDEIDAALDNTNIGKVANYIKEQSTCNFQAIVISLKEEFYTKAESLIGVYPEQGDCVISKVLTFDLTKYPDANPNPNEQ

target: β-catenin (human (endogenous in MCF7)) (UniProt P35222); experiment: co-IP; 800 μg total protein extract from MCF7 cells, precleared with Dynabeads protein A; overnight at 4 °C with 7 μg β-catenin antibody coupled to Dynabeads protein A; Western blot for NIPBL, RAD21, SMC1A and SMC3; IgG-coated beads as control

binding, binds:
NIPBL (from UniProt Q6KC79 1-2804)
SMC3 (from UniProt Q9UQE7 1-1217)
B1
B2
